The structures given here were assigned with low confidence; some may be wrong. Where only a bound is given, the exact number is not on record here.

Amino acid sequences for entries named in this document (tags omitted). Residues count along the entry.
UniProt P33681, 35-242 limits assumed: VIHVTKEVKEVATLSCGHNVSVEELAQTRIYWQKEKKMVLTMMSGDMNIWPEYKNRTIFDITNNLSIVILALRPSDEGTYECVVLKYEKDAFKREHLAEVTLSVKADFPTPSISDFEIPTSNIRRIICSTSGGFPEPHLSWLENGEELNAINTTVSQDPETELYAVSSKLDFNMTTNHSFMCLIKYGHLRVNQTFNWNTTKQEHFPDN

For orientation: EC50 means the midpoint of the concentration-response curve.

The assay concerns the target CD80-CD28 interaction (Homo sapiens, UniProt P33681). Nature of the assay: cell free Homogenous Time Resolved Fluorescence (HTRF) assay, inhibition of the CD80-CD28 interaction. The settings on record: read-out: Activity (EC50 in summary form), 4 hours at room temperature. For orientation: In TR-FRET formats the signal depends on donor and acceptor labels being close together.

With `CC(C)NC(=O)Nc1ccc(-n2nc3c4cccc(F)c4[nH]cc-3c2=O)cc1`, the EC50 is below 1 µM.

The values above are taken from patent US7291612B2, “Immunomodulatory compounds” (Active Biotech A.B., priority 2002, dated 2007).
